Taken from: PubChem BioAssay AID1224830 (NIAID, 2016)

- Test: 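Genes whose knock-down alters the TNF-alpha reporter response to LPS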 (primary screen)
- Cell system: human THP-1 monocytic leukaemia cells, TNF dual-luciferase reporter clone, PMA-differentiated to macrophage-like cells
- Reagents: siRNA pool against human genes, 50 nM
- Time to read-out: LPS for 4 h, given about 3 days after siRNA transfection
- Treatment: bacterial LPS (TLR4 ligand), 10 ng/ml
- Detection: 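Ratio of firefly to renilla light, scaled to the plate median and expressed as a robust z-score per replicate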
- Direction: TNF reporter robust z-score: higher = stronger TNF reporter response to LPS
- Hit rule: 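a well is active when its z-score exceeds 2.8 or falls below -1.5; control wells carry no call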
The whole screen tested about 18,000 reagents; shown is a random part of them. Over the whole deposit, about 2,900 (16%) got an active call. 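Calls are made per well; low scores hint the gene aids the LPS response, high scores that it dampens it.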 Repeated entries: four replicate wells of each siRNA pool.

{"Gene": "AMY2A (amylase alpha 2A)", "TNF reporter robust z-score": -0.04, "Call": "inactive"}
{"Gene": "AMY2A (amylase alpha 2A)", "TNF reporter robust z-score": 0.01, "Call": "inactive"}
{"Gene": "AMY2A (amylase alpha 2A)", "TNF reporter robust z-score": 0.12, "Call": "inactive"}
{"Gene": "AMY2A (amylase alpha 2A)", "TNF reporter robust z-score": -0.34, "Call": "inactive"}
{"Gene": "NLGN3 (neuroligin 3)", "TNF reporter robust z-score": -0.18, "Call": "inactive"}
{"Gene": "NLGN3 (neuroligin 3)", "TNF reporter robust z-score": 2.32, "Call": "inactive"}
{"Gene": "NLGN3 (neuroligin 3)", "TNF reporter robust z-score": 0.2, "Call": "inactive"}
{"Gene": "NLGN3 (neuroligin 3)", "TNF reporter robust z-score": 0.54, "Call": "inactive"}
{"Gene": "MAP6 (microtubule associated protein 6)", "TNF reporter robust z-score": 0.91, "Call": "inactive"}
{"Gene": "MAP6 (microtubule associated protein 6)", "TNF reporter robust z-score": 1.38, "Call": "inactive"}
{"Gene": "MAP6 (microtubule associated protein 6)", "TNF reporter robust z-score": 0.64, "Call": "inactive"}
{"Gene": "MAP6 (microtubule associated protein 6)", "TNF reporter robust z-score": 2.73, "Call": "inactive"}
{"Gene": "PPP2R1B (protein phosphatase 2 scaffold subunit Abeta)", "TNF reporter robust z-score": 0.68, "Call": "inactive"}
{"Gene": "PPP2R1B (protein phosphatase 2 scaffold subunit Abeta)", "TNF reporter robust z-score": 2.18, "Call": "inactive"}
{"Gene": "PPP2R1B (protein phosphatase 2 scaffold subunit Abeta)", "TNF reporter robust z-score": 1.19, "Call": "inactive"}
{"Gene": "PPP2R1B (protein phosphatase 2 scaffold subunit Abeta)", "TNF reporter robust z-score": 1.27, "Call": "inactive"}
{"Gene": "WAPL (WAPL cohesin release factor)", "TNF reporter robust z-score": 0.61, "Call": "inactive"}
{"Gene": "WAPL (WAPL cohesin release factor)", "TNF reporter robust z-score": 3.25, "Call": "active"}
{"Gene": "WAPL (WAPL cohesin release factor)", "TNF reporter robust z-score": 0.84, "Call": "inactive"}
{"Gene": "WAPL (WAPL cohesin release factor)", "TNF reporter robust z-score": 0.18, "Call": "inactive"}
{"Gene": "HACL2 (2-hydroxyacyl-CoA lyase 2)", "TNF reporter robust z-score": 0.23, "Call": "inactive"}
{"Gene": "HACL2 (2-hydroxyacyl-CoA lyase 2)", "TNF reporter robust z-score": 0.32, "Call": "inactive"}
{"Gene": "HACL2 (2-hydroxyacyl-CoA lyase 2)", "TNF reporter robust z-score": 0.43, "Call": "inactive"}
{"Gene": "HACL2 (2-hydroxyacyl-CoA lyase 2)", "TNF reporter robust z-score": 1.82, "Call": "inactive"}
{"Gene": "PMPCA (peptidase, mitochondrial processing subunit alpha)", "TNF reporter robust z-score": 0.37, "Call": "inactive"}
{"Gene": "PMPCA (peptidase, mitochondrial processing subunit alpha)", "TNF reporter robust z-score": 1.55, "Call": "inactive"}
{"Gene": "PMPCA (peptidase, mitochondrial processing subunit alpha)", "TNF reporter robust z-score": 1.39, "Call": "inactive"}
{"Gene": "PMPCA (peptidase, mitochondrial processing subunit alpha)", "TNF reporter robust z-score": 1.29, "Call": "inactive"}
{"Gene": "CNTNAP1 (contactin associated protein 1)", "TNF reporter robust z-score": 0.24, "Call": "inactive"}
{"Gene": "CNTNAP1 (contactin associated protein 1)", "TNF reporter robust z-score": -0.24, "Call": "inactive"}
{"Gene": "CNTNAP1 (contactin associated protein 1)", "TNF reporter robust z-score": -0.66, "Call": "inactive"}
{"Gene": "CNTNAP1 (contactin associated protein 1)", "TNF reporter robust z-score": -0.01, "Call": "inactive"}
{"Gene": "SREBF1 (sterol regulatory element binding transcription factor 1)", "TNF reporter robust z-score": -0.34, "Call": "inactive"}
{"Gene": "SREBF1 (sterol regulatory element binding transcription factor 1)", "TNF reporter robust z-score": 1.04, "Call": "inactive"}
{"Gene": "SREBF1 (sterol regulatory element binding transcription factor 1)", "TNF reporter robust z-score": -0.95, "Call": "inactive"}
{"Gene": "SREBF1 (sterol regulatory element binding transcription factor 1)", "TNF reporter robust z-score": 0.99, "Call": "inactive"}
{"Gene": "OR51G2 (olfactory receptor family 51 subfamily G member 2)", "TNF reporter robust z-score": 3.18, "Call": "active"}
{"Gene": "OR51G2 (olfactory receptor family 51 subfamily G member 2)", "TNF reporter robust z-score": 2.74, "Call": "inactive"}
{"Gene": "OR51G2 (olfactory receptor family 51 subfamily G member 2)", "TNF reporter robust z-score": -0.34, "Call": "inactive"}
{"Gene": "OR51G2 (olfactory receptor family 51 subfamily G member 2)", "TNF reporter robust z-score": -0.08, "Call": "inactive"}
{"Gene": "FAM107B (family with sequence similarity 107 member B)", "TNF reporter robust z-score": -0.69, "Call": "inactive"}
{"Gene": "FAM107B (family with sequence similarity 107 member B)", "TNF reporter robust z-score": -0.44, "Call": "inactive"}
{"Gene": "FAM107B (family with sequence similarity 107 member B)", "TNF reporter robust z-score": -0.29, "Call": "inactive"}
{"Gene": "FAM107B (family with sequence similarity 107 member B)", "TNF reporter robust z-score": -0.01, "Call": "inactive"}
{"Gene": "ARMC6 (armadillo repeat containing 6)", "TNF reporter robust z-score": 0.2, "Call": "inactive"}
{"Gene": "ARMC6 (armadillo repeat containing 6)", "TNF reporter robust z-score": 1.29, "Call": "inactive"}
{"Gene": "ARMC6 (armadillo repeat containing 6)", "TNF reporter robust z-score": 0.43, "Call": "inactive"}
{"Gene": "ARMC6 (armadillo repeat containing 6)", "TNF reporter robust z-score": 0.84, "Call": "inactive"}
